The text below walks through data of paper PMC13408954.

The chains behind the UniProt entries cited, without tags or fusion partners.
UniProt O43303: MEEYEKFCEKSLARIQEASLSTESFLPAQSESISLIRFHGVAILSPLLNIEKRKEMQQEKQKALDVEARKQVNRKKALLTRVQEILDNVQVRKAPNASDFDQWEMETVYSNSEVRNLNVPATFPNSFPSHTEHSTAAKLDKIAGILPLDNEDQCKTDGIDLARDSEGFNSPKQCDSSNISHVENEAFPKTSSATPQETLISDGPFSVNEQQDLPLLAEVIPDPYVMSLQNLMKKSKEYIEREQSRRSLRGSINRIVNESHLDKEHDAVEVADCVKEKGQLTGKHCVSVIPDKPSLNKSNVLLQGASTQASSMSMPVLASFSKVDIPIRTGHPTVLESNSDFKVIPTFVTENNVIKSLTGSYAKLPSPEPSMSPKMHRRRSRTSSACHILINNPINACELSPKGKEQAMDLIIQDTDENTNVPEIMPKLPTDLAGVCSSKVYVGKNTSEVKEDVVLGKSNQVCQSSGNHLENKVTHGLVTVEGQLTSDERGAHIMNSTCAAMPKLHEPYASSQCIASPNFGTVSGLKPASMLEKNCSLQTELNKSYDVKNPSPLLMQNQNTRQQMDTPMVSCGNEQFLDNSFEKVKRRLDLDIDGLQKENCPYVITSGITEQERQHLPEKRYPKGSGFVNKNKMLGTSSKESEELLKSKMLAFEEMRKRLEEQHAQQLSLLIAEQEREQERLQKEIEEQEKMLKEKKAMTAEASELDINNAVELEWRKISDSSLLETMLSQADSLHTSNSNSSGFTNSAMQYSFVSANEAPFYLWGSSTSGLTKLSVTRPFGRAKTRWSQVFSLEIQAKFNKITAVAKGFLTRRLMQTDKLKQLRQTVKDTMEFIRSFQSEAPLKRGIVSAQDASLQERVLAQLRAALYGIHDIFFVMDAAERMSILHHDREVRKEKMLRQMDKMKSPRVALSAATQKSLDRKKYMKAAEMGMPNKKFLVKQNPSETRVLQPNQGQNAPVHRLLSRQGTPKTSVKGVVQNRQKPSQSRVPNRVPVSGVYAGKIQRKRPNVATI

Results are given in words; binding and its absence hold for the method and conditions named. In cells and extracts the contact can be indirect. Some results given as binding are weak or reduced against the parent protein; the word gives no strength. Sequences can lack the tags named with a protein.

The target in test [1] is T1, GFP-CEP97 (UniProt Q8IW35).
T1 sequence: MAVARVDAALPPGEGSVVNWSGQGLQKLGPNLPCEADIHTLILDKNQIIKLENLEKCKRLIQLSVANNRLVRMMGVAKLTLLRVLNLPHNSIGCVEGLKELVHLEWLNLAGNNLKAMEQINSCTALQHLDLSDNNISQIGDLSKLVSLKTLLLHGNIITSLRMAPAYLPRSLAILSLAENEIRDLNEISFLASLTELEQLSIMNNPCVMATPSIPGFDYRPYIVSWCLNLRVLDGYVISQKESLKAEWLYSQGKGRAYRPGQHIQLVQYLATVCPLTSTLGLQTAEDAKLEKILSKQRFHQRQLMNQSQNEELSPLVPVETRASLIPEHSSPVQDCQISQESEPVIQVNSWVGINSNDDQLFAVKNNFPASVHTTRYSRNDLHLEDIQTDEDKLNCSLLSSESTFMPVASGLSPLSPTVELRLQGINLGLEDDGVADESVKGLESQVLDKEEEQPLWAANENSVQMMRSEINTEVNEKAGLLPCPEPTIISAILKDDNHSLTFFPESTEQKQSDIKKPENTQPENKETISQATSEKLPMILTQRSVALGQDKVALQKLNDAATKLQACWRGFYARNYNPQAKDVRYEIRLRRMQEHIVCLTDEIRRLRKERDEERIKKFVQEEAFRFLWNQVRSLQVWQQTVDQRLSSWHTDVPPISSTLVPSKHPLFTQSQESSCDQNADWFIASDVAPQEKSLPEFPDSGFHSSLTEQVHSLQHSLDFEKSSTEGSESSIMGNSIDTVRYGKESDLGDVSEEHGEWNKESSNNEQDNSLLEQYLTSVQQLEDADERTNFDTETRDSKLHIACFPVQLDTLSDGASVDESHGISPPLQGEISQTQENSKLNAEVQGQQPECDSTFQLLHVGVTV
Briefly: co-IP; HA-tagged membrane trafficking regulators with GFP-CP110 or GFP-CEP97, transiently transfected 293T; lysis in 20 mM Tris-HCl pH 7.5, 150 mM KCl, 1 mM EDTA, 0.5% NP-40, 10% glycerol; which tag was precipitated is not stated for these panels (Fig. 6c, d); immunoblot. (In general: A western blot detects proteins with antibodies after separation by electrophoresis.)

Test [2] concerns the target GFP-CP110 (UniProt O43303). The test is described as above.

B1: HA-EHD1 (protein, UniProt Q9H4M9 1-534)
chain: MFSWVSKDARRKKEPELFQTVAEGLRQLYAQKLLPLEEHYRFHEFHSPALEDADFDNKPMVLLVGQYSTGKTTFIRHLIEQDFPGMRIGPEPTTDSFIAVMHGPTEGVVPGNALVVDPRRPFRKLNAFGNAFLNRFMCAQLPNPVLDSISIIDTPGILSGEKQRISRGYDFAAVLEWFAERVDRIILLFDAHKLDISDEFSEVIKALKNHEDKIRVVLNKADQIETQQLMRVYGALMWSLGKIINTPEVVRVYIGSFWSHPLLIPDNRKLFEAEEQDLFKDIQSLPRNAALRKLNDLIKRARLAKVHAYIISSLKKEMPNVFGKESKKKELVNNLGEIYQKIEREHQISPGDFPSLRKMQELLQTQDFSKFQALKPKLLDTVDDMLANDIARLMVMVRQEESLMPSQVVKGGAFDGTMNGPFGHGYGEGAGEGIDDVEWVVGKDKPTYDEIFYTLSPVNGKITGANAKKEMVKSKLPNTVLGKIWKLADVDKDGLLDDEEFALANHLIKVKLEGHELPADLPPHLVPPSKRRHE
Take B1: the binding entry in test [1] and in test [2] was “binds” each time.
